Test results published in patent publication US20080267888A1, “Heterocyclic Derivatives” (priority 2005, published 2008).
At least one read-out could not be matched to a standard name with certainty.

Each compound was assayed on 3T3-L1 cells (assay: Glucose uptake assay using 3T3-L1 cells). Details: 14C deoxyglucose uptake, differentiated 3T3-L1 adipocytes, 1 μM, 72 hours; relative to reference compound BLX-1002.
Type: cell-based

SMILES	Stimulation Index
O=C1COCC(Cc2ccc(Oc3ccc(/C=C4\SC(=S)NC4=O)cc3)cc2)N1 (centres unmarked) [Example 2, 5-(4-{4-[(4-oxo-2-thioxo-1,3-thiazolidin-5-ylidene)methyl]phenoxy}benzyl)morpholin-3-one]	0.89
O=C1COCC(Cc2ccc(Oc3ccc(/C=C4/SC(=S)NC4=O)cc3Cl)cc2)N1 (centres unmarked) [Example 8, 5-(4-{2-chloro-4-[(4-oxo-2-thioxo-1,3-thiazolidin-5-ylidene)methyl]phenoxy}benzyl)morpholin-3-one]	0.87
O=C1COCC(Cc2ccc(Oc3ccc(/C=C4\SC(=O)NC4=O)cc3)cc2)N1 (centres unmarked) [Example 1, 5-[4-(4-{[5-oxomorpholin-3-yl]methyl}phenoxy)benzylidene]-1,3-thiazolidine-2,4-dione]	0.93
O=C1COCC(Cc2ccc(Oc3ccc(/C=C4/C(=O)Nc5ccccc54)cc3C(F)(F)F)cc2)N1 (centres unmarked) [Example 17, 5-(3-(trifluoromethyl)-4-{4-[(5-oxomorpholin-3-yl)methyl]phenoxy}benzylidene)-1,3-dihydro-2H-indol-2-one]	1.09
O=C(O)CN1C(=O)/C(=C/c2ccc(Oc3ccc(CC4COCC(=O)N4)cc3)c(F)c2)SC1=S (centres unmarked) [Example 6]	0.94
O=C1COCC(Cc2ccc(Oc3ccc(/C=C4\SC(=O)NC4=O)cc3Cl)cc2)N1 (centres unmarked) [Example 7, 5-(3-chloro-4-{4-[(5-oxomorpholin-3-yl)methyl]phenoxy}benzylidene)-1,3-thiazolidine-2,4-dione]	0.85
O=C(O)CN1C(=O)/C(=C/c2ccc(Oc3ccc(CC4COCC(=O)N4)cc3)cc2)SC1=S (centres unmarked) [Example 3]	0.92
O=C(O)CN1C(=O)/C(=C/c2ccc(Oc3ccc(CC4COCC(=O)N4)cc3)cc2Cl)SC1=S (centres unmarked) [Example 10]	0.89
O=C1COCC(Cc2ccc(Oc3ccc(/C=C4/SC(=S)NC4=O)c(Cl)c3)cc2)N1 (centres unmarked) [Example 11, 5-(4-{3-chloro-4-[(4-oxo-2-thioxo-1,3-thiazolidin-5-ylidene)methyl]phenoxy}benzyl)morpholin-3-one]	1.05
O=C1COCC(Cc2ccc(Oc3ccc(/C=C4/C(=O)Nc5ccccc54)c(Cl)c3)cc2)N1 (centres unmarked) [Example 14, 5-(2-chloro-4-{4-[(5-oxomorpholin-3-yl)methyl]phenoxy}benzylidene)-1,3-dihydro-2H-indol-2-one]	1.11
O=C1COCC(Cc2ccc(Oc3ccc(C=C4SC(=O)NC4=O)cc3F)cc2)N1 (centres unmarked) [Example 5, 5-(3-fluoro-4-{4-[(5-oxomorpholin-3-yl)methyl]phenoxy}benzylidene)-1,3-thiazolidine-2,4-dione]	0.91
O=C1COCC(Cc2ccc(Oc3ccc(/C=C4/SC(=O)NC4=O)cc3C(F)(F)F)cc2)N1 (centres unmarked) [Example 13, 5-[4-{4-[(5-oxomorpholin-3-yl)methyl]phenoxy}-3-(trifluoromethyl)benzylidene]-1,3-thiazolidine-2,4-dione]	1.14
O=C1COCC(Cc2ccc(Oc3ccc(/C=C4/SC(=O)NC4=O)c(Cl)c3)cc2)N1 (centres unmarked) [Example 12, 5-(2-chloro-4-{4-[(5-oxomorpholin-3-yl)methyl]phenoxy}benzylidene)-1,3-thiazolidine-2,4-dione]	0.96
CN1C(=O)COCC1Cc1ccc(Oc2ccc(/C=C3\SC(=O)NC3=O)cc2)cc1 (centres unmarked) [Example 19, 5-(4-{4-[(4-methyl-5-oxomorpholin-3-yl)methyl]phenoxy}benzylidene)-1,3-thiazolidine-2,4-dione]	0.99
O=C1COCC(Cc2ccc(Oc3ccc(CC4SC(=S)NC4=O)cc3Cl)cc2)N1 (centres unmarked) [Example 34, 5-(4-{2-chloro-4-[(4-oxo-2-thioxo-1,3-thiazolidin-5-yl)methyl]phenoxy}benzyl) morpholin-3-one]	0.89
CN1C(=O)COCC1Cc1ccc(Oc2ccc(/C=C3\SC(=S)NC3=O)cc2)cc1 (centres unmarked) [Example 20, 4-methyl-5-(4-{4-[(4-oxo-2-thioxo-1,3-thiazolidin-5-ylidene)methyl]phenoxy}benzyl)morpholin-3-one]	0.96
O=C1COCC(Cc2ccc(Oc3ccc(/C=C4/C(=O)Nc5ccccc54)cc3)cc2)N1 (centres unmarked) [Example 4, 5-(4-{4-[(5-oxomorpholin-3-yl)methyl]phenoxy}benzylidene)-1,3-dihydro-2H-indol-2-one]	0.99
